{
  "source": "paper PMC6021032",
  "about": "“Antimycobacterial activity of nitrogen heterocycles derivatives: 7-(pyridine-4-yl)-indolizine derivatives. Part VII^8–12” (Journal of Enzyme Inhibition and Medicinal Chemistry, 2017)",
  "assay": "Cytotoxicity, THP-1 cell viability (CellTiter-Glo)",
  "settings": "human",
  "data": [
    {"compound": "CN[C@@H]1C[C@H]2O[C@@](C)([C@@H]1OC)n1c3ccccc3c3c4c(c5c6ccccc6n2c5c31)C(=O)NC4", "note": "[Staurosporine, reference compound]", "values": [
      {"measurement": "IC50 at 3 days", "value": 20, "unit": "nM"}
    ]}
  ]
}
